# Laboratory results reported in US20090010880A1 (priority 2007, published 2009).
# For at least one compound, name, drawing or mass did not settle the structure.
# Experiments:
# [1] = test system: intracellular viral RNA of BVDV; test: Intracellular viral RNA by RT-quantitative PCR; type: cell-based, Bovine Viral Diarrhea Virus
# [2] = test system: NADL strain of BVDV; test: Plate viability assay (monolayer disruption by NADL); type: cell-based, Bovine Viral Diarrhea Virus; conditions: MDBK cells
# [3] = test system: BVDV (Bovine Viral Diarrhea Virus); test: Cytopathic Effect Assay (CPEA) / cell viability, BVDV in MDBK cells
# [4] = test system: BVDV; test: Plaque assays; type: cell-based, Bovine Viral Diarrhea Virus; conditions: 6 and 12 μg/ml
# [5] = test system: viral protein NS3; test: Western blot analysis of viral NS3 protein; type: cell-based, Bovine Viral Diarrhea Virus; conditions: 25 μg/ml, NADL-infected MDBK cells
# Protocol: MDBK cells were infected with NADL strain of BVDV (MOI 10) in the presence or absence of 25 μg/ml of geneticin. Based on previous publications, the 18-24 h post-infection time point was chosen to determine viral proteins in infected cells. […] Thus, at 24 h post-infection, cell media was removed and cells were washed several times with PBS. Then, 2× concentrated electrophoresis sample buffer was added, cells were scraped from the dish and transferred to a microcentrifuge tube. To reduce viscosity, the samples were sonicated briefly or passed several times through a 26-gauge needle and boiled for 5 min. Fifteen micrograms of lysate sample were run on 10% SDS-PAGE and then transblotted. After blocking for 1 h in blocking buffer (5% dry milk in 0.05% Tween 20 in PBS), membranes were incubated with primary antibody (MAb 20.10.6) diluted 1:1,000 in blocking buffer for 60 min at room temperature and washed with 0.05% Tween 20 in PBS. After incubation with secondary antibody (anti-mouse IgG-HRP; Sigma) diluted 1:200 in blocking buffer for 60 min at room temperature, NS3 was detected with the Amersham ECL kit according to the manufacturer's instructions (Amersham Biosciences, Piscataway, N.J., USA).
smiles,measurement,setting,value
CN[C@@H]1[C@@H](O)[C@@H](O[C@@H]2[C@@H](O)[C@H](O[C@H]3O[C@H]([C@@H](C)O)[C@@H](O)[C@H](O)[C@H]3N)[C@@H](N)C[C@H]2N)OC[C@]1(C)O [Geneticin],quantities of intracellular viral RNA,[1],no difference
same,monolayer disruption associated with NADL-mediated cytopathology,[2],blocks monolayer disruption
same,cell viability of infected cells,"[3]; 12.5 μg/ml, BVDV-infected MDBK cells",increases cell viability to the level of uninfected control cells
same,viability of infected cells compared to untreated infected cells,"[3]; 1.5-25 μg/ml, NADL, 72 hours post infection",improves the viability of infected cells
same,cell viability of cpBVDV-infected cells (cytoprotection against NADL),"[3]; NADL, MDBK cells, 12 μg/ml per drug",significantly improved cell viability
same,number of plaques,[4],without affecting the number of plaques
same,plaque size,[4],significantly reduced plaque size
same,processing of NS2-NS3 protein,[5],does not block
